The target of assay [1] is PAXIP1_Q6ZW49_933_HIVTPEWLEECFR (UniProt Q6ZW49). In words: probe-labelled cysteine peptide fold change vs DMSO (competition) (log2 fold change); higher = less target engagement (more negative = stronger competition). The following applies: THP-1, incubation time: 4 h.
Assay [2] has as its target PBRM1_Q86U86_979_NSMYHVGDYVYVEPAEANLQPHIVCIER (UniProt Q86U86). The assay is described as above. The settings on record: THP-1, incubation time: 4 h.

Sequences of proteins named here, by UniProt entry; tags and fusion partners are left off.
UniProt Q6ZW49, whole entry, looked up: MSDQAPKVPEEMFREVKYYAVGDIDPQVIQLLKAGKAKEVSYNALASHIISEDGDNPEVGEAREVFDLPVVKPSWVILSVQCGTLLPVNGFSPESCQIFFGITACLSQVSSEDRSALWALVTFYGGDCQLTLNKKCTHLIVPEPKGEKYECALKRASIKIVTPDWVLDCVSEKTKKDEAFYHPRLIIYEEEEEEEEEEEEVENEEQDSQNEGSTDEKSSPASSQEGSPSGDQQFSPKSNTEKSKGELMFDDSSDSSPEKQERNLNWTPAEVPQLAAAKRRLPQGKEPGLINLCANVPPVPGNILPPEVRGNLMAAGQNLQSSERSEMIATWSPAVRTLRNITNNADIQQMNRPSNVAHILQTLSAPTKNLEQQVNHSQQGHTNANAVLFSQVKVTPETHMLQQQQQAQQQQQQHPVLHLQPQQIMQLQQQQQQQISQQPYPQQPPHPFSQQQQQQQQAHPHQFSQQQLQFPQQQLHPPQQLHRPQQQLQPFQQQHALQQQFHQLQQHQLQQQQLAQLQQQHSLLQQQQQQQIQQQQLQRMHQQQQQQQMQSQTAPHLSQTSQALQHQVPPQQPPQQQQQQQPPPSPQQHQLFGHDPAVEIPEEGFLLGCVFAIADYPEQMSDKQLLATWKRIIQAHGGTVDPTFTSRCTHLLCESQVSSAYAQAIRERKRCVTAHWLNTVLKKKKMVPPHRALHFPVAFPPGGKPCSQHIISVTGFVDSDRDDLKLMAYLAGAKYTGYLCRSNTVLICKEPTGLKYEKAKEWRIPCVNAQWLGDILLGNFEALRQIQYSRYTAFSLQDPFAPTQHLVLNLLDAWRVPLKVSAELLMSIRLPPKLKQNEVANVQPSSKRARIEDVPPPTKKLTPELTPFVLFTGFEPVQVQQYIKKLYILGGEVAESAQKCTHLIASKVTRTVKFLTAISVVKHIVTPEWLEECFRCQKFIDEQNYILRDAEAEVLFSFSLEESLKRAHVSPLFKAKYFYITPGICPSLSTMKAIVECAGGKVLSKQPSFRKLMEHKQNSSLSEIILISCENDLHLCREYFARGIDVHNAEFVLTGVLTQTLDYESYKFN
UniProt Q86U86, whole entry, looked up: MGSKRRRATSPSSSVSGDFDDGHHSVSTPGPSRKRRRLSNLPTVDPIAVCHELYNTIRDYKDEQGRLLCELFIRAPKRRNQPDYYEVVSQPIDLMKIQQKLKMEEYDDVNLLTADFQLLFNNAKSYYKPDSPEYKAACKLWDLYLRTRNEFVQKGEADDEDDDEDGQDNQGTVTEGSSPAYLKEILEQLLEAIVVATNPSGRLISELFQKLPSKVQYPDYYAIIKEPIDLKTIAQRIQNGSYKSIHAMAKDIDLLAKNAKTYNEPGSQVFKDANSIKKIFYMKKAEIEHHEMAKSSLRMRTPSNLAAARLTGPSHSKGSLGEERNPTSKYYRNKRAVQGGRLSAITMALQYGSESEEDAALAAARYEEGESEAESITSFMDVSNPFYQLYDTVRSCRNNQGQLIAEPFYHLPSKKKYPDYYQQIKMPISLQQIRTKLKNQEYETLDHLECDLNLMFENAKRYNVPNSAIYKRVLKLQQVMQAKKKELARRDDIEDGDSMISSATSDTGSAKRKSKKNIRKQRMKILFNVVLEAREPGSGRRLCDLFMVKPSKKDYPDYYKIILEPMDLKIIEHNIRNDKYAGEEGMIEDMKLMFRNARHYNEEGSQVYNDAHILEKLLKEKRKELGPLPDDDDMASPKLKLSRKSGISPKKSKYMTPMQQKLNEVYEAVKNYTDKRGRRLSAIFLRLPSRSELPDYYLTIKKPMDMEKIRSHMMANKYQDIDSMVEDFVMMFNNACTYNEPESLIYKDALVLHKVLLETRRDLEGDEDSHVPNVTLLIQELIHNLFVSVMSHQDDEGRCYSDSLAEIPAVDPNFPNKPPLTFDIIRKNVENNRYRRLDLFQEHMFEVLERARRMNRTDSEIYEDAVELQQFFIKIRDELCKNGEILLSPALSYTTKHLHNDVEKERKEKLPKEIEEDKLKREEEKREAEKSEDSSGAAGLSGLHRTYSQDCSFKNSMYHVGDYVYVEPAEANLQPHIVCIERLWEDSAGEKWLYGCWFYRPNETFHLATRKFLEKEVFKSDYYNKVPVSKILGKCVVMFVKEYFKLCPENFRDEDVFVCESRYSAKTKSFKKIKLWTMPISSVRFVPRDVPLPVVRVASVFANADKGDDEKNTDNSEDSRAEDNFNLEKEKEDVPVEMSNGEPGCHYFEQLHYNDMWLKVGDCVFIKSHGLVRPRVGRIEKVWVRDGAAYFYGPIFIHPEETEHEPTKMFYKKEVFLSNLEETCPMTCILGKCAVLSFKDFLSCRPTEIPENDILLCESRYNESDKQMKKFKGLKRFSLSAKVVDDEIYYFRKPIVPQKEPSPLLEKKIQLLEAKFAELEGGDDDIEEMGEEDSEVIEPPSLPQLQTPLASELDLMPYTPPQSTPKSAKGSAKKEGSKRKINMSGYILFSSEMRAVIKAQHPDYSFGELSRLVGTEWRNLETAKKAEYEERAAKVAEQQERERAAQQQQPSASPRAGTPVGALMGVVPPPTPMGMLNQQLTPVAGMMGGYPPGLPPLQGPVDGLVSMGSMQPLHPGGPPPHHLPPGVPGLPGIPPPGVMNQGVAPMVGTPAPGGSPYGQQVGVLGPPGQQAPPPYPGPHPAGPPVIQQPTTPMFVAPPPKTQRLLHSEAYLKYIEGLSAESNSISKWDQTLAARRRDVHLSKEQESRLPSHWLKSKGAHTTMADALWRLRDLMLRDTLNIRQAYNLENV

The list shows a part of the results.
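Note: competitive chemoproteomic profiling in live THP-1 cells with an iodoacetamide desthiobiotin (IA-DTB) probe, comparing probe-labelled peptide intensities in compound-treated cells against DMSO-treated controls.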

`CC1Cc2ccccc2N1C(=O)C1CCCN(C(=O)CCl)C1` (mixture of isomers) [TRIM25 ligand 11 (diastereomer mixture)]: the “probe-labelled cysteine peptide fold change” value in assay [1] (10 µM) is -0.0207; in assay [1] (50 µM) it was -0.0116; in assay [2] (10 µM), 0.451; in assay [2] (50 µM) it was -0.0875.

(Values after the supplement of paper PMC12067093, “Discovery and optimisation of a covalent ligand for TRIM25 and its application to targeted protein ubiquitination” (Chemical Science, 2025).)
